Data source: PubChem BioAssay AID493246 (Drosophila RNAi Screening Center, 2011)
The screen tested about 21,000 reagents; this is a random part of those with a known target gene and a result. In the full data, 429 (2%) were called active. 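Values are raw and not normalised between plates; calls rest on per-plate z-scores that were not deposited.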 The record does not give: the amount of reagent, the time to read-out.

- Test: 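Identify essential fly genes by loss of cell viability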 (primary screen)
- Cells: Drosophila Kc and S2R+ cells
- Knock-down reagent: long dsRNA against Drosophila genes
- Detection: 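Cell number per well after knock-down, printed as raw plate values; calls were based on per-plate z-scores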
- Direction: Kc cell number and S2R+ cell number: higher = more cells remaining
- Rule for the call: 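Counted as a hit if cell number falls by a z-score of at least 3 within its plate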

target | DRSC id | Kc cell number, rep 1 | Kc cell number, rep 2 | S2R+ cell number, rep 1 | S2R+ cell number, rep 2 | call
CG13694 | DRSC00363 | 1.55e6 | 1.57e6 | 1.09e6 | 1.25e6 | inactive
Not10 | DRSC14129 | 1.57e6 | 1.60e6 | 1.23e6 | 1.33e6 | inactive
Trf4 | DRSC00729 | 1.59e6 | 1.56e6 | 1.12e6 | 1.28e6 | inactive
Strip | DRSC08194 | 1.22e6 | 1.25e6 | 1.29e6 | 1.06e6 | inactive
CG17107 | DRSC02575 | 1.50e6 | 1.48e6 | 1.08e6 | 1.16e6 | inactive
kon | DRSC02033 | 1.26e6 | 1.34e6 | 1.24e6 | 1.10e6 | inactive
CR10032 | DRSC12499 | 1.63e6 | 1.76e6 | 1.31e6 | 1.44e6 | inactive
Ubr3 | DRSC17987 | 6.22e5 | – | 9.31e5 | – | inactive
Ubr3 | DRSC17997 | 1.56e6 | 1.52e6 | 1.03e6 | 1.13e6 | inactive
PVRAP | DRSC09966 | 1.67e6 | 1.62e6 | 1.12e6 | 1.13e6 | inactive
PVRAP | DRSC10577 | 1.67e6 | 1.69e6 | 1.18e6 | 1.27e6 | inactive
stol | DRSC01956 | 1.48e6 | 1.56e6 | 1.21e6 | 1.38e6 | inactive
CG15638 | DRSC01875 | 1.52e6 | 1.64e6 | 1.19e6 | 1.32e6 | inactive
kappaTry | DRSC06146 | 1.51e6 | 1.50e6 | 1.18e6 | 1.32e6 | inactive
obst-E | DRSC02128 | 1.31e6 | 1.51e6 | 3.29e5 | 3.59e5 | inactive
CG3793 | DRSC01982 | 1.38e6 | 1.43e6 | 1.29e6 | 1.35e6 | inactive

6 entries from above, arranged by “S2R+ cell number, rep 1”, low to high:
target | DRSC id | Kc cell number, rep 1 | Kc cell number, rep 2 | S2R+ cell number, rep 1 | S2R+ cell number, rep 2 | call
CG17107 | DRSC02575 | 1.50e6 | 1.48e6 | 1.08e6 | 1.16e6 | inactive
Trf4 | DRSC00729 | 1.59e6 | 1.56e6 | 1.12e6 | 1.28e6 | inactive
Not10 | DRSC14129 | 1.57e6 | 1.60e6 | 1.23e6 | 1.33e6 | inactive
kon | DRSC02033 | 1.26e6 | 1.34e6 | 1.24e6 | 1.10e6 | inactive
Strip | DRSC08194 | 1.22e6 | 1.25e6 | 1.29e6 | 1.06e6 | inactive
CR10032 | DRSC12499 | 1.63e6 | 1.76e6 | 1.31e6 | 1.44e6 | inactive

The listing continues:
target | DRSC id | Kc cell number, rep 1 | Kc cell number, rep 2 | S2R+ cell number, rep 1 | S2R+ cell number, rep 2 | call
CG10324 | DRSC14230 | 1.53e6 | 1.54e6 | 1.08e6 | 1.17e6 | inactive
CG15382 | DRSC00397 | 1.50e6 | 1.54e6 | 1.00e6 | 1.19e6 | inactive
CG17742 (retired record) | DRSC10285 | 1.17e6 | 1.20e6 | 6.20e5 | 6.22e5 | active
CG2875 | DRSC18231 | 5.37e5 | – | 8.35e5 | – | inactive
nw | DRSC06749 | 1.37e6 | 1.46e6 | 1.19e6 | 1.16e6 | inactive
nw | DRSC06896 | 1.49e6 | 1.55e6 | 1.22e6 | 1.35e6 | inactive
Gr36c | DRSC02437 | 1.73e6 | 1.65e6 | 1.36e6 | 1.44e6 | inactive
CG1941 | DRSC06802 | 1.62e6 | 1.61e6 | 1.30e6 | 1.46e6 | inactive
Wdr82 | DRSC02595 | 1.55e6 | 1.65e6 | 1.12e6 | 1.19e6 | inactive
Ir47a | DRSC06215 | 1.57e6 | 1.62e6 | 1.38e6 | 1.43e6 | inactive
Spt5 | DRSC07556 | 1.65e6 | 1.63e6 | 8.14e5 | 9.23e5 | inactive
CG11975 | DRSC14452 | 1.64e6 | 1.80e6 | 1.21e6 | 1.25e6 | inactive
dtr | DRSC01847 | 5.06e5 | – | 8.30e5 | – | inactive
CG32266 | DRSC08062 | 1.41e6 | 1.37e6 | 1.02e6 | 1.15e6 | inactive
CG9162 (retired record) | DRSC03151 | 1.25e6 | 1.37e6 | 6.58e5 | 9.98e5 | inactive
CAH5 | DRSC15372 | 1.48e6 | 1.56e6 | 1.12e6 | 1.24e6 | inactive
Pex1 | DRSC11358 | 1.53e6 | 1.55e6 | 1.20e6 | 1.29e6 | inactive
CG4891 | DRSC01936 | 1.32e6 | 1.36e6 | 1.33e6 | 1.35e6 | inactive
Pef | DRSC06695 | 1.62e6 | 1.56e6 | 1.11e6 | 1.17e6 | inactive
l(2)dtl | DRSC04697 | 1.33e6 | 1.34e6 | 5.92e5 | 6.79e5 | inactive
Elba1 | DRSC00276 | 1.55e6 | 1.49e6 | 1.22e6 | 1.38e6 | inactive
esn | DRSC05039 | 1.45e6 | 1.53e6 | 9.62e5 | 1.09e6 | inactive
esn | DRSC07612 | 1.53e6 | 1.58e6 | 1.23e6 | 1.26e6 | inactive
Gale | DRSC08234 | 1.27e6 | 1.37e6 | 1.06e6 | 1.10e6 | inactive
